The text below walks through data of article doi:10.1101/2020.10.14.339929.

Amino acid sequences for entries named in this document (tags omitted).
UniProt Q01094: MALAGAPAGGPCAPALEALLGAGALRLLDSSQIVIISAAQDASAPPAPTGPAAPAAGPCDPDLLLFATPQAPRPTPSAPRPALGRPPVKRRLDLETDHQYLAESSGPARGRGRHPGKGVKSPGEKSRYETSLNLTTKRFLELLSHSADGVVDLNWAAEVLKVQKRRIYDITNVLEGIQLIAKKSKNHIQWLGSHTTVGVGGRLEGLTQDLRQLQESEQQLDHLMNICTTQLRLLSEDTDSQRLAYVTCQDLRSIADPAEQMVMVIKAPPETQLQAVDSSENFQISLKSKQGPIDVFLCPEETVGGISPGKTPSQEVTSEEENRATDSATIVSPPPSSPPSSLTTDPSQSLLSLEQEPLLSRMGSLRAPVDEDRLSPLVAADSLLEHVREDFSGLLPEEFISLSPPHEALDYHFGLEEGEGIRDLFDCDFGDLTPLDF
UniProt O09106: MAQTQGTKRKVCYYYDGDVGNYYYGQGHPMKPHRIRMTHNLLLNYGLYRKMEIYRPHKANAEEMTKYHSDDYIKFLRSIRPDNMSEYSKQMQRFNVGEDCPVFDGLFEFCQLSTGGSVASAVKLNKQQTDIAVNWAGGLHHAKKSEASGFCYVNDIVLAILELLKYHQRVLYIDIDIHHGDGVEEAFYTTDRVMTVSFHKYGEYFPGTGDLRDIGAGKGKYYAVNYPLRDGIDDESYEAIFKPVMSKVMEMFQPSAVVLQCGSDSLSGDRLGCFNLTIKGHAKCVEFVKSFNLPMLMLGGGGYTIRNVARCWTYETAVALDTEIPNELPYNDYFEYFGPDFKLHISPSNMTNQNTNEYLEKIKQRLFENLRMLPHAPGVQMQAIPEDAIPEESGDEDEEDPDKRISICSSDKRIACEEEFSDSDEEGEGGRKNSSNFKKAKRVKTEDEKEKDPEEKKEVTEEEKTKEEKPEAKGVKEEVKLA

No constants are given. Whether binding was seen depends on the method and setting. In cells and extracts the contact can be indirect. These calls come from enrichment with a bait or labelling near it, and not all partners need be listed.

The target in this assay is human E2F1 coupled to a FLAG tag (pCMV-hE2F1-FLAG) (human) (UniProt Q01094). Briefly: affinity purification with mass spectrometry.

For “HDAC1 (from UniProt O09106 1-482) (enzyme)”, the binding result is listed as “binds”.

B1: HDAC6 (enzyme, UniProt Q9Z2V5 1-1149)
chain: MTSTGQDSSTRQRKSRHNPQSPLQESSATLKRGGKKCAVPHSSPNLAEVKKKGKMKKLSQPAEEDLVVGLQGLDLNPETRVPVGTGLVFDEQLNDFHCLWDDSFPESPERLHAIREQLILEGLLGRCVSFQARFAEKEELMLVHSLEYIDLMETTQYMNEGELRVLAETYDSVYLHPNSYSCACLATGSVLRLVDALMGAEIRNGMAVIRPPGHHAQHNLMDGYCMFNHLAVAARYAQKKHRIQRVLIVDWDVHHGQGTQFIFDQDPSVLYFSIHRYEHGRFWPHLKASNWSTIGFGQGQGYTINVPWNQTGMRDADYIAAFLHILLPVASEFQPQLVLVAAGFDALHGDPKGEMAATPAGFAHLTHLLMGLAGGKLILSLEGGYNLRALAKGVSASLHTLLGDPCPMLESCVVPCASAQTSIYCTLEALEPFWEVLERSVETQEEDEVEEAVLEEEEEEGGWEATALPMDTWPLLQNRTGLVYDEKMMSHCNLWDNHHPETPQRILRIMCHLEEVGLAARCLILPARPALDSELLTCHSAEYVEHLRTTEKMKTRDLHREGANFDSIYICPSTFACAKLATGAACRLVEAVLSGEVLNGIAVVRPPGHHAEPNAACGFCFFNSVAVAARHAQIIAGRALRILIVDWDVHHGNGTQHIFEDDPSVLYVSLHRYDRGTFFPMGDEGASSQVGRDAGIGFTVNVPWNGPRMGDADYLAAWHRLVLPIAYEFNPELVLISAGFDAAQGDPLGGCQVTPEGYAHLTHLLMGLAGGRIILILEGGYNLASISESMAACTHSLLGDPPPQLTLLRPPQSGALVSISEVIQVHRKYWRSLRLMKMEDKEECSSSRLVIKKLPPTASPVSAKEMTTPKGKVPEESVRKTIAALPGKESTLGQAKSKMAKAVLAQGQSSEQAAKGTTLDLATSKETVGGATTDLWASAAAPENFPNQTTSVEALGETEPTPPASHTNKQTTGASPLQGVTAQQSLQLGVLSTLELSREAEEAHDSEEGLLGEAAGGQDMNSLMLTQGFGDFNTQDVFYAVTPLSWCPHLMAVCPIPAAGLDVSQPCKTCGTVQENWVCLTCYQVYCSRYVNAHMVCHHEASEHPLVLSCVDLSTWCYVCQAYVHHEDLQDVKNAAHQNKFGEDMPHSH
For B1, the binding entry was “binds”.
